Assay [1] has as its target LRP1 (low-intensity lipoprotein-receptor-related protein 1) (human (endogenous in SKOV3 and A224)) (UniProt Q07954). Description: proximity ligation; Duolink PLA on SKOV3 and A224 cells fixed with 3.7% formaldehyde; anti-LRP1 (ab92544) and anti-LTF (sc-52048) antibodies; with or without ITLN1; controls: no primary antibody, anti-LTF plus normal rabbit IgG; only the binder purified.

By UniProt entry, the sequences of proteins in these tests, tags left out. Residues count along the entry.
UniProt Q07954, residues 20-4544: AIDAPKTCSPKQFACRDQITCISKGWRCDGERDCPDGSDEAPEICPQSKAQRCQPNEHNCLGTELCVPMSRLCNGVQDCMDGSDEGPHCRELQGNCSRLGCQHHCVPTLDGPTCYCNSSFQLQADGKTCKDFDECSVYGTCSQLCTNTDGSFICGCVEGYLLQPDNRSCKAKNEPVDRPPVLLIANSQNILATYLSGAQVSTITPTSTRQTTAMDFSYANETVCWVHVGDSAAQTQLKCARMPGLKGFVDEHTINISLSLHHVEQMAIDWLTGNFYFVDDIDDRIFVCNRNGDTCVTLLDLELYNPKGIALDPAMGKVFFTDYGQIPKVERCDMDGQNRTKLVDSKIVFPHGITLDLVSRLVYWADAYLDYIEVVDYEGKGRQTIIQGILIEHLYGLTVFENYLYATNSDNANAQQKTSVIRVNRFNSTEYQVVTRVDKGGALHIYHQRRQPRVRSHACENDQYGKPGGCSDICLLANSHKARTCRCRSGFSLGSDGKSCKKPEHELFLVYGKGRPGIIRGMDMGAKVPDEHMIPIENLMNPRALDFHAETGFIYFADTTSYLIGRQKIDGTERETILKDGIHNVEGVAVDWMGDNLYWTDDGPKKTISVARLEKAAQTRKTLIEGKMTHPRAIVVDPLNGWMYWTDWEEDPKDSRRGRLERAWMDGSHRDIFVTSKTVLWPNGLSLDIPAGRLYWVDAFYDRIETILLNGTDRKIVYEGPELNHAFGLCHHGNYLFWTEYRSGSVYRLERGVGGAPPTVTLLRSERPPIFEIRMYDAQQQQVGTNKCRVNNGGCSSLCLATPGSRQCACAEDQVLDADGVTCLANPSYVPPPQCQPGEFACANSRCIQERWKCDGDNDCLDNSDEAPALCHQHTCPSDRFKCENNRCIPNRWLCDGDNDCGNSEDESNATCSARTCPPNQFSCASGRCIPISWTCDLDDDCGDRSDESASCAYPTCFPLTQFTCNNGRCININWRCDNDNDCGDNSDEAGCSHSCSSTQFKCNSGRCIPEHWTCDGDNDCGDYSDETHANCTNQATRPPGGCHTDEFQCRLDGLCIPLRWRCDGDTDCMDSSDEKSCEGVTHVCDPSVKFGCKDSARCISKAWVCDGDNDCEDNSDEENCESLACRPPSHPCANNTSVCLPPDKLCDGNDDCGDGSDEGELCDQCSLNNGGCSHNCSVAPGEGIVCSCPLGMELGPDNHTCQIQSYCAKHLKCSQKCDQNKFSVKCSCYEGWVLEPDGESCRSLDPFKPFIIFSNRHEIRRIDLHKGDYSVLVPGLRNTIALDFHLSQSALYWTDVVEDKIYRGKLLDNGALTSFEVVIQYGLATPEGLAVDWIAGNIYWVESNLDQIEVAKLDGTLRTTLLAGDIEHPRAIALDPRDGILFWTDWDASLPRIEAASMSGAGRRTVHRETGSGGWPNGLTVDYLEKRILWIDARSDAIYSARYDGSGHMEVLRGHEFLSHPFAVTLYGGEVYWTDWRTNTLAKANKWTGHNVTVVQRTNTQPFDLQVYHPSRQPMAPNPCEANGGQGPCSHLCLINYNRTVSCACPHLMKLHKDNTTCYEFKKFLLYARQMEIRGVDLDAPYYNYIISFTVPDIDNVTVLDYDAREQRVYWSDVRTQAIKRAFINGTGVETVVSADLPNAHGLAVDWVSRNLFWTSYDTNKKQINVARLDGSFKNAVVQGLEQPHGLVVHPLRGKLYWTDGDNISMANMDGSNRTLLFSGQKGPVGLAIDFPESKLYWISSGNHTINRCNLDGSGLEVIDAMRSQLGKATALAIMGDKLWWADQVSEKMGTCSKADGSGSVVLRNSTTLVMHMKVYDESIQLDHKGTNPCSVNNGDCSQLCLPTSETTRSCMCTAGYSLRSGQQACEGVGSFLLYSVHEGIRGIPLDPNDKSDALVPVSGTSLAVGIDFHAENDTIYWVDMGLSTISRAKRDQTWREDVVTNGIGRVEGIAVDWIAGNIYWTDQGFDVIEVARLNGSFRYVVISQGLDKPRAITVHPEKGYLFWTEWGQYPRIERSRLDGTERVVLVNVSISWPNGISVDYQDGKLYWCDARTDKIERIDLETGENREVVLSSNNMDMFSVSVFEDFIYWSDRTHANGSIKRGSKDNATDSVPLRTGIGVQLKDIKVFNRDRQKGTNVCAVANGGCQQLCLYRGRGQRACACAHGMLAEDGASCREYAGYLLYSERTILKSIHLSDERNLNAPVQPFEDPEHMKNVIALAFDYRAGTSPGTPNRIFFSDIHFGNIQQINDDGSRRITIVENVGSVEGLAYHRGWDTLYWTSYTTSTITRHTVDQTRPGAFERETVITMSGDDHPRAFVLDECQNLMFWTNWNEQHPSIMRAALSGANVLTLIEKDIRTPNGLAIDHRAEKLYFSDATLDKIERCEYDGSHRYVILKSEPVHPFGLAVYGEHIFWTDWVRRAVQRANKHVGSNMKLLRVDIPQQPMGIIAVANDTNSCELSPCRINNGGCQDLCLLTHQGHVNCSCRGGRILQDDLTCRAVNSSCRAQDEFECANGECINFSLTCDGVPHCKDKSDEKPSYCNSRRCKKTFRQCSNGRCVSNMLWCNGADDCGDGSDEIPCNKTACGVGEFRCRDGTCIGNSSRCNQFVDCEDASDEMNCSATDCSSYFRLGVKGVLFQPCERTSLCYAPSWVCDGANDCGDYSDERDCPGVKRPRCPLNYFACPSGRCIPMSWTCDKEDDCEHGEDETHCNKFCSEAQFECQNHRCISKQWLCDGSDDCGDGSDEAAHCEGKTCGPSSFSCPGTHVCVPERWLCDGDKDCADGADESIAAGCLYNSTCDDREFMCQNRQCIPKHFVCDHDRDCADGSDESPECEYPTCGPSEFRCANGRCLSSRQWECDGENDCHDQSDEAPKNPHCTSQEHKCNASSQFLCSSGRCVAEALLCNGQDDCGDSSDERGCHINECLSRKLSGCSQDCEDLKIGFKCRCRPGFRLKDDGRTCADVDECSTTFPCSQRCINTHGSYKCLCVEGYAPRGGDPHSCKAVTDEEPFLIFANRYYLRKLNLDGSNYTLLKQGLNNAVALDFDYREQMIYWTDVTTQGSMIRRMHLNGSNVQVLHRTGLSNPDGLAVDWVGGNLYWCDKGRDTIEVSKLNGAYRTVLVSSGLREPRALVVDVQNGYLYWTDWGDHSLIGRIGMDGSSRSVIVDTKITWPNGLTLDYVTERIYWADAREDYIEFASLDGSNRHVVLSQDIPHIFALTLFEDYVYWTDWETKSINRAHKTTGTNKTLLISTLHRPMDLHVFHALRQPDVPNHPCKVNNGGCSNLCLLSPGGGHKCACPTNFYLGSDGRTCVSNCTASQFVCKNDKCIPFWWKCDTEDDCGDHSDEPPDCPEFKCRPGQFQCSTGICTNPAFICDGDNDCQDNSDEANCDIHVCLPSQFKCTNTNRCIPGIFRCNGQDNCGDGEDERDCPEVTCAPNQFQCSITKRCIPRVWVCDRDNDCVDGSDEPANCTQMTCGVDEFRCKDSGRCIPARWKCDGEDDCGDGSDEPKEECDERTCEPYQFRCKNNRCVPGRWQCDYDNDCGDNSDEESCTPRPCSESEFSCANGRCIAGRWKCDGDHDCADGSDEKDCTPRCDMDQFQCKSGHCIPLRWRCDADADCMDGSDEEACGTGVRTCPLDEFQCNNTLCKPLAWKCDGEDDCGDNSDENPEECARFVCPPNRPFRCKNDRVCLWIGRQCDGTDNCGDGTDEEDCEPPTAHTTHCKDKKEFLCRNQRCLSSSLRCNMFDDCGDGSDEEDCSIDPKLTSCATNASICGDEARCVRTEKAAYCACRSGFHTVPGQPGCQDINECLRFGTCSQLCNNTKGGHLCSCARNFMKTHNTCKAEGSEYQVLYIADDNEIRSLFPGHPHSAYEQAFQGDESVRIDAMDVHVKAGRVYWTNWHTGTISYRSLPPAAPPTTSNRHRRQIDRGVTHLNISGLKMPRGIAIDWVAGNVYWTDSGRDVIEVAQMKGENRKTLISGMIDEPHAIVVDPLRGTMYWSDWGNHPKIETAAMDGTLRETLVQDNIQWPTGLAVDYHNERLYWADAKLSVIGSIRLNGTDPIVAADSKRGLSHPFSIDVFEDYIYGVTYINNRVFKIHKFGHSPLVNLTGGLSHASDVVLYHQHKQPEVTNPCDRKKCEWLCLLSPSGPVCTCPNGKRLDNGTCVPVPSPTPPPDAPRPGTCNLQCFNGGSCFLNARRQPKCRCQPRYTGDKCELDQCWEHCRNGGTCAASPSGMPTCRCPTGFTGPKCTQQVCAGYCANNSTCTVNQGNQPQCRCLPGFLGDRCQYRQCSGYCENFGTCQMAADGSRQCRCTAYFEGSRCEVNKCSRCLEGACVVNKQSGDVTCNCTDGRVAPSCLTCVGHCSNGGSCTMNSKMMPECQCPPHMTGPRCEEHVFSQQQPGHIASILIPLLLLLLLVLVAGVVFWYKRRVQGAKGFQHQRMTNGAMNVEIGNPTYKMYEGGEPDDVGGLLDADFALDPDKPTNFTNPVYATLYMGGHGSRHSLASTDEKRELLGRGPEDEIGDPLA
UniProt P02788, residues 20-710: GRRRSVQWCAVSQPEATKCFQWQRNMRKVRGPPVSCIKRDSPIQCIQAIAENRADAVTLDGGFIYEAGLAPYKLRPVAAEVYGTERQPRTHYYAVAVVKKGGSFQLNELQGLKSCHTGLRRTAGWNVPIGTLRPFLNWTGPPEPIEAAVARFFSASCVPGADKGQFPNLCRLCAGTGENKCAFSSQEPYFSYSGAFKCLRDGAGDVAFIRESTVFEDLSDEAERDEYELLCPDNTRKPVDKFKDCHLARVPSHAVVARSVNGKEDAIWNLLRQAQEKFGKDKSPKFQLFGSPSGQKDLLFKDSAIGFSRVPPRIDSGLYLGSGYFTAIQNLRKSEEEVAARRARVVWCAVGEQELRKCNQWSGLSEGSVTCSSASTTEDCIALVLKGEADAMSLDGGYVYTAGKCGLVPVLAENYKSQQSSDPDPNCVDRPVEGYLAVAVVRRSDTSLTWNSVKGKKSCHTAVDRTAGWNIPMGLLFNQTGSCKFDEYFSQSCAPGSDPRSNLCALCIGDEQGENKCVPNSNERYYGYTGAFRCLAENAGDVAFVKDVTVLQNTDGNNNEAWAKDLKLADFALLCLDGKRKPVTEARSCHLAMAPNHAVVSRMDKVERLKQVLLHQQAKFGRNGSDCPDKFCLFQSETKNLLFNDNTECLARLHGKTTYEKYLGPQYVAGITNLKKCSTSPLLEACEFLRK
UniProt Q8WWA0, residues 19-298: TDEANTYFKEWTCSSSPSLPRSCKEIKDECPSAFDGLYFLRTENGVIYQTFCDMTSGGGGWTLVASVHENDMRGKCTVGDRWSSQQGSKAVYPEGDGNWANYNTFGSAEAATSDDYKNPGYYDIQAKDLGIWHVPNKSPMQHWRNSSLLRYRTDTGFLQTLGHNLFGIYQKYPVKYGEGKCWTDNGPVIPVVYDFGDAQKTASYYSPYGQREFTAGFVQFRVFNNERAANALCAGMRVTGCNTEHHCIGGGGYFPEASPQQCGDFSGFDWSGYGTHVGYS

Assay [2] concerns the target LTF (lactotransferrin) from human milk (human) (UniProt P02788). Description: pull-down; called 'in vitro pull-down assay': LTF from human milk and recombinant human ITLN1 incubated in serum-free medium at 37 °C for 24 h; medium incubated with anti-LTF antibody (sc-52048) 2 h at 4 °C, protein A/G PLUS-agarose beads; western blot with anti-ITLN1; normal mouse IgG as control; both purified.

No constants are given. Whether binding was seen depends on the method and setting. For some assays here: In cells and extracts the contact can be indirect. Some results given as binding are weak or reduced against the parent protein; the word gives no strength.

As for “LTF (lactotransferrin) from human milk (from UniProt P02788 20-710)”, the binding entry in assay [1] was “binds”.

“recombinant human ITLN1 (intelectin-1, or omentin) (from UniProt Q8WWA0 19-298)”: the binding entry in assay [2] was “binds”.

The values above are taken from publication PMC7363861.
